In patent US20110033883A1, “IMAGING DYES AND USE THEREOF” (priority 2007, published 2011):

Experiments:
[1] = Emission intensity and lifetime in DPPG liposomes; assay type: physicochemical
[2] = Oxygen quenching of luminescence (Stern-Volmer); assay type: physicochemical
Experimental: Different oxygen concentrations were adjusted by streaming various O2—N2-mixtures through the solution until equilibrium was reached. The oxygen concentration was measured with an optical O2 electrode (Visiferm DO120, Hamilton). The fluorescence lifetime of the equilibrated dye solutions was measured in a closed-system flow cell.
In air saturated PBS solutions the lifetime drops down to 540 ns when the pic ligand is neutral, and even down to 350 ns, when the pic moiety is deprotonated. Stern-Volmer plots are linear up to air saturated solutions and then start levelling of. The Stern-Volmer quenching constants range actually vary very little with pH 2100 M^−1 for pH 10 to around 2900 M^−1 when the pic moiety is in its neutral state. The corresponding bimolecular rate constants vary between around […] when the pic moiety is deprotonated to […] when the pic moiety is in its neutral state, which is essentially the same within experimental error. This means that within the limited range of the cellular environment the O2 concentration within a cell can be assessed independently of pH using this dye.

[3] = Luminescence quantum yield and lifetime in buffered aqueous solution; assay type: physicochemical
[4] = tested on: Sp2/0-Ag 14 myeloma cells; test: Luminescence lifetime imaging (FLIM) of myeloma cells; assay type: cell-based, mouse

Substance	τ (μs) in DPPG liposome in PBS buffer Biexponential decay τ1 ([1]; DPPG liposome in PBS buffer)	τ (μs) in DPPG liposome in PBS buffer Biexponential decay τ2 ([1]; DPPG liposome in PBS buffer)	emission intensity in the presence of DPPG liposomes ([1]; after 24 hours, absorbance matched solutions)	Stern-Volmer quenching constant (oxygen) ([2]; pH 10)	Stern-Volmer quenching constant (oxygen) ([2]; pic moiety in its neutral state)	luminescence lifetime τ ([3]; PBS buffer, pH 6, PicH moiety neutral)	luminescence lifetime ([3]; air saturated PBS, pic ligand neutral)	luminescence lifetime ([3]; air saturated PBS, pic moiety deprotonated)	luminescence lifetime τ ([3]; degassed PBS, pH 11, imidazole deprotonated)	quantum yield of the emission ([3]; neutral pH (pH 7) buffered aqueous solution)	luminescence lifetime ([3]; pH 7 buffered aqueous solution, aerated)	luminescence lifetime ([3]; pH 7 buffered aqueous solution, deaerated)	luminescence lifetime from calibration plot ([3]; pH 7.5, air saturated PBS)	luminescence lifetime from calibration plot ([3]; pH 7.5, degassed aqueous solution)	luminescence lifetime (FLIM) ([4]; background region, myeloma cells incubated 12 minutes)	luminescence lifetime (FLIM) ([4]; cell membrane region)	luminescence lifetime (FLIM) ([4]; cytoplasm)	luminescence lifetime (FLIM) ([4]; nucleus)
[Ru(dppz)2(PicH2)]ClO4 [[Ru(dppz)2PICH2]^2+]	0.36 μs	0.1 μs	double the intensity															
[Ru(bpy)2(PicH-R8)]^n+: ruthenium centre with two bipyridine ligands and one picH ligand; octaarginine coupled to pic carboxy end via Ahx spacer, amide linkage (RRRRRRRR; Ru(bpy)2 picH complex via Ahx spacer)				2100 M⁻¹	around 2900 M^−1	860 ns	540 ns	350 ns	521 ns	0.06	480 ns	775 ns	451 ns	779 ns	513 ns	452 ns	540 ns	709 ns
